Measurements: publication PMC3184947
No constants are given. Whether binding was seen depends on the method and setting. In cells and extracts the contact can be indirect. Some results given as binding are weak or reduced against the parent protein; the word gives no strength. Where a sequence is shown, tags or fusion partners need not be part of it.

Biological target: T1, Cdc11-GFP (S. cerevisiae) (UniProt P32458)
T1 sequence: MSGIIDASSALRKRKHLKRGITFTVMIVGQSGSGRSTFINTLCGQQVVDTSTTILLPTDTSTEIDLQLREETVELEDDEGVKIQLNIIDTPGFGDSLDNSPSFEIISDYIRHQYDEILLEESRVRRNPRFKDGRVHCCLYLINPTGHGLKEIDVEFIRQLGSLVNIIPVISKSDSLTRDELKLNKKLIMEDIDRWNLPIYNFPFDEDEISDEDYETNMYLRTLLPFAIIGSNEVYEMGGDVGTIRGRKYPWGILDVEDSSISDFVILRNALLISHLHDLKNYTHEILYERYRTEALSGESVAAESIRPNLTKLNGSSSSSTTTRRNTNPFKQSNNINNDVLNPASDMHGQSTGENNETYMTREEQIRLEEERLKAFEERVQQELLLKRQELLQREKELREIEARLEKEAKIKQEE
Assay: co-IP; GFP-trap magnetic beads added to 10 mg of yeast whole cell lysate, bait a GFP-tagged septin; eluates on SDS-PAGE, silver stain and Western blot (anti-acetyl lysine, anti-HA, anti-actin, anti-GFP); wild type ESA1 or esa1-L254P background, cells at 25°C or 37°C

- binding: binds
Substance: Act1 (from UniProt P60010 1-375)
